Our source for the binding values is publication PMC7618404.

By UniProt entry, the sequences of proteins in these tests, tags left out.
UniProt P08758: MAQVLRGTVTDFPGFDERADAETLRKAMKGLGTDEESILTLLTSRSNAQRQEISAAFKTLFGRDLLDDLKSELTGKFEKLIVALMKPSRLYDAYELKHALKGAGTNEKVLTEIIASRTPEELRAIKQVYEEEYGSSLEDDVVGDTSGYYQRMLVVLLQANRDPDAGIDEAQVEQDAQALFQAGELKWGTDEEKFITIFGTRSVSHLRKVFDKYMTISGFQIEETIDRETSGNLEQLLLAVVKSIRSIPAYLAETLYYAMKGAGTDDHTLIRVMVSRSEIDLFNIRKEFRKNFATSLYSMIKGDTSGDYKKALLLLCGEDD

The assay deals with Myc-tagged WT-PKCα (human) (UniProt P17252). Put plainly: affinity purification with mass spectrometry; Myc-PKCα WT, D463H or D463N from transfected U87MG cells captured on Myc-trap agarose; lysis in 20 mM Tris pH 8.0, 130 mM NaCl, 1% Triton X-100, 1 mM DTT, 10 mM NaF; bead-associated kinase reaction with 1 mM Mg-ATP before SDS-PAGE; label-free quantitation (MaxQuant LFQ); proteins found in empty-vector controls excluded.

These are yes or no findings as the source states them, for the method shown. In cells and extracts the contact can be indirect. Here binding means that the protein was enriched with, or labelled near, the bait; the list need not be complete.

PKCγ (from UniProt P05129 1-697): the binding entry is reported as “binds”.

In the case of annexin V (from UniProt P08758 1-320), the binding result was “binds”.
